Assay results taken from paper doi:10.1101/473397.
These are yes or no findings as the source states them, for the method shown. Binding seen in cells or lysates may run through a third protein. Some results given as binding are weak or reduced against the parent protein; the word gives no strength. Where a sequence is shown, tags or fusion partners need not be part of it.

Chains of the proteins cited; added tags and fusions are not shown.
UniProt O95863, whole entry: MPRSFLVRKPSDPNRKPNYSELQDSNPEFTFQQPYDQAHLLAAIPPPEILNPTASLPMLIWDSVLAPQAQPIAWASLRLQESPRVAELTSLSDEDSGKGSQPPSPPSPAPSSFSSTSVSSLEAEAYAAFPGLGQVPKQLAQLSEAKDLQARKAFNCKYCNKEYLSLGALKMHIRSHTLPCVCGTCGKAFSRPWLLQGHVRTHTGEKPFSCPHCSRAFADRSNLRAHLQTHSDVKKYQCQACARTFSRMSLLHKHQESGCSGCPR

Columns and labels:
[1] = molecular target: T1, HA-tagged E3 ligase FBX011 (UniProt Q86XK2); test: co-IP
T1 sequence: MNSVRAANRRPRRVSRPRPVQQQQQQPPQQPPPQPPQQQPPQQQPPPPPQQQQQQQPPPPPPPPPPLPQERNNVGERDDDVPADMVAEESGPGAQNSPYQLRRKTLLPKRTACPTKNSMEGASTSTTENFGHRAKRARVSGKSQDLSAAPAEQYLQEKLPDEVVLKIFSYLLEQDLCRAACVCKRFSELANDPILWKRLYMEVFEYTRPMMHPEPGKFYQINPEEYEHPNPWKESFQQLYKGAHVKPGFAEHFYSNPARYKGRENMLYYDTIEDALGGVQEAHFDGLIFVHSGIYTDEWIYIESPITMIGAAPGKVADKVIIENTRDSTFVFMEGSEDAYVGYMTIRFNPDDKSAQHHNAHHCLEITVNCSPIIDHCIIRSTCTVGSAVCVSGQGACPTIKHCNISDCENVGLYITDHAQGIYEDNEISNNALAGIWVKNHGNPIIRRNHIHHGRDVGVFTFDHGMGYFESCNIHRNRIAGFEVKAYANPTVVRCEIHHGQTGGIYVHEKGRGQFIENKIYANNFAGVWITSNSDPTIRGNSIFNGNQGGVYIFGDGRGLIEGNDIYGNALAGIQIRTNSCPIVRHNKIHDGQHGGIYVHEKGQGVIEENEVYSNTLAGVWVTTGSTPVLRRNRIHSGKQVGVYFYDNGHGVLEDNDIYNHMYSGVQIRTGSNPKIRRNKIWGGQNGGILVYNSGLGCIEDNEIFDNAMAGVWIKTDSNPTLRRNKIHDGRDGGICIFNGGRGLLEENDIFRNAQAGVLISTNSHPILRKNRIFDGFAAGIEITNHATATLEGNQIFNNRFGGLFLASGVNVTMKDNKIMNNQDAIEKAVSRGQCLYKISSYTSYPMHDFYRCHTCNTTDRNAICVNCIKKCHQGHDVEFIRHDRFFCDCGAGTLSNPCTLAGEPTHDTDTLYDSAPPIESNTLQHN

[2] = molecular target: T2, FLAG-tagged full length NDRG2 (N-Myc downstream-regulated gene 2) (UniProt Q9UN36); test: co-IP
T2 sequence: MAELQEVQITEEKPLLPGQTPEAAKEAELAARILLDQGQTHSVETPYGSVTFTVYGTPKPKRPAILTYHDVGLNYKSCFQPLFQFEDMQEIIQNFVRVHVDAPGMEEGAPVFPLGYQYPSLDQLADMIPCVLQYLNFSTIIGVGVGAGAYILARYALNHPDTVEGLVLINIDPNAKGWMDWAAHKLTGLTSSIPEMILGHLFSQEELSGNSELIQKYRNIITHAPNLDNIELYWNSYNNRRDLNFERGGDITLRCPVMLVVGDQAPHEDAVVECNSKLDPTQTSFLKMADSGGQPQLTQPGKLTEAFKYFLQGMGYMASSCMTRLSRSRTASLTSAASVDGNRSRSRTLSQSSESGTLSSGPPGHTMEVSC

For “Myc-tagged Snail (from UniProt O95863 1-264)”, which binding [1] is on record?
The binding was “binds”.

B1: HA-tagged E3 ligase FBX011 (protein, UniProt Q86XK2 1-927)
chain: T1 sequence
For B1, which binding [2] is on record?
Its binding is “binds”.
